Laboratory results published in paper PMC8494741.
Results are given in words; binding and its absence hold for the method and conditions named. Binding seen in cells or lysates may run through a third protein. Some entries that bind do so weakly or less than the wild type. Blank lines part the entries; values can stand above or below the substance they belong to.

By UniProt entry, the sequences of proteins in these tests, tags left out. Where a name states a change or a piece, a line headed by the entry shows the natural chain unless it says otherwise. Residues count along the entry.
UniProt P48730: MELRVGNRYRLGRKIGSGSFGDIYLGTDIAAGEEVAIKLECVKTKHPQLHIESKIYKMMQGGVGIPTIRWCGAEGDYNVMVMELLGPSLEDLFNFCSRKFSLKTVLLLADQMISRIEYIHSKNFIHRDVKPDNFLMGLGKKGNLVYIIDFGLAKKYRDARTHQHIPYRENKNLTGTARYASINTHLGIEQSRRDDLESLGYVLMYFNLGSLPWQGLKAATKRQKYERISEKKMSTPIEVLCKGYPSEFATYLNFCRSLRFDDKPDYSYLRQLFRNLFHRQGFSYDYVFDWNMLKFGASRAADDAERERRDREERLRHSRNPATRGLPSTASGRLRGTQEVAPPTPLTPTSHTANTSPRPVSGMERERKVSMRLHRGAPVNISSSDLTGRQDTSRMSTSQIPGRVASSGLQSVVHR
UniProt O75581, residues 20-1613: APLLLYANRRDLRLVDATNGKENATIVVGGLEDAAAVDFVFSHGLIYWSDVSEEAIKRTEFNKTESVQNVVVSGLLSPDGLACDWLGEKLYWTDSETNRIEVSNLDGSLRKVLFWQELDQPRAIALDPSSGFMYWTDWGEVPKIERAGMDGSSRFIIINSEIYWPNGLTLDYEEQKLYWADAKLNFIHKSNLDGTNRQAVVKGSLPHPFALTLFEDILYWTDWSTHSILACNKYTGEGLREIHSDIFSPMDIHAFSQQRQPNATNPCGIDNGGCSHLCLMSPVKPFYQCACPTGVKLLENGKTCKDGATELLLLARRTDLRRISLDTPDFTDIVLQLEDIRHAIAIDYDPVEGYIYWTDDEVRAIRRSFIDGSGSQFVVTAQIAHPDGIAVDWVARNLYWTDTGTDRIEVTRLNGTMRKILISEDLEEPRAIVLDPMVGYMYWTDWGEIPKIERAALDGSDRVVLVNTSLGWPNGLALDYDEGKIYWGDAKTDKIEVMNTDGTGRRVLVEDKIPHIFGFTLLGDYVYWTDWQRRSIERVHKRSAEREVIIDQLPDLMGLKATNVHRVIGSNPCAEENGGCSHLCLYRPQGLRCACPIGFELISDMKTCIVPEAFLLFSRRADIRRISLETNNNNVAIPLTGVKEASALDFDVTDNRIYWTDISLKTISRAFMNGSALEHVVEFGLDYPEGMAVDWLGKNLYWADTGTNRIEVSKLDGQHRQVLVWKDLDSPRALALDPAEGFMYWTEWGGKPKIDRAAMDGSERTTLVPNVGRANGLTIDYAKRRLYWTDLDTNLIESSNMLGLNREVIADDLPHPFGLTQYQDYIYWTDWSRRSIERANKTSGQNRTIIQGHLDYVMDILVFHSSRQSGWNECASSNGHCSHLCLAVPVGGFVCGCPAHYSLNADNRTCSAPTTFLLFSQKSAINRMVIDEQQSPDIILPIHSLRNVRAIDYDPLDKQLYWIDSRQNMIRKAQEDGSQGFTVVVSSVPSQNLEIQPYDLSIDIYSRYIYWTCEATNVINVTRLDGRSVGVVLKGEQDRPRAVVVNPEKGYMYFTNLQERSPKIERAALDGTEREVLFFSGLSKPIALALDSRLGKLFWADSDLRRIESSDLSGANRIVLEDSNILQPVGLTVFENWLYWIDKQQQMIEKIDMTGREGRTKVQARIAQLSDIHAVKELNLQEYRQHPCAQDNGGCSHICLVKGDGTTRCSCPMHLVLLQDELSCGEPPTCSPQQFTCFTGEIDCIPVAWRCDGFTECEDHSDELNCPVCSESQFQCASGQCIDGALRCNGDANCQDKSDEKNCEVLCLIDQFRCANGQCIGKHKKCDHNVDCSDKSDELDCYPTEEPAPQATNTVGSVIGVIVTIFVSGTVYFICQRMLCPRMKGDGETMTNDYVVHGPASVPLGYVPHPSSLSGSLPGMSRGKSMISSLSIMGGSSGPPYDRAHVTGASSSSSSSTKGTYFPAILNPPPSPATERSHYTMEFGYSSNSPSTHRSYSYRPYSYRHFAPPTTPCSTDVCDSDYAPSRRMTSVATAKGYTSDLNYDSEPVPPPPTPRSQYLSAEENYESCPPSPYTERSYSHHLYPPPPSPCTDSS
UniProt Q5BJF2: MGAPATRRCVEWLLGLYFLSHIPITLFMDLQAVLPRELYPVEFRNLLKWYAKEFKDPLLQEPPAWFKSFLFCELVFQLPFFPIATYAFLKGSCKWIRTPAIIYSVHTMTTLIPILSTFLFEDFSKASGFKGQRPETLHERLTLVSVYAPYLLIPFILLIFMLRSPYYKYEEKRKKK

Experiments:
[1] = target: CK1δ, endogenous in MDA-MB-231 (human (endogenous in MDA-MB-231)) (UniProt P48730); test: co-IP; endogenous proteins of unmanipulated MDA-MB-231 cells; RIPA lysate; IgG or anti-CK1δ antibody with protein G beads, 4 °C overnight; immunoblot
LRP6-V5 (human) = LRP6-V5 (human) (UniProt O75581); test: co-IP; HEK293T transfected with tagged proteins; RIPA lysate; anti-Flag or anti-V5 agarose beads, 4 °C overnight; four washes with RIPA; immunoblot; for CK1δ-V5 and CK1ε-V5 with or without co-expressed TMEM97-Flag
[2] = target: LRP6, endogenous in HEK293T (human (endogenous in HEK293T)) (UniProt O75581); test: co-IP; endogenous proteins of HEK293T (untransfected, or transfected with TMEM97-Flag); RIPA lysate; control IgG or anti-LRP6, anti-CK1δ or anti-CK1ε antibody with protein G beads, 4 °C overnight; immunoblot

binding [1]: binds
Substance: TMEM97, endogenous in MDA-MB-231 (from UniProt Q5BJF2 1-176)

binding (LRP6-V5 (human)): binds
Substance: TMEM97-Flag (from UniProt Q5BJF2 1-176)

binding [2]: binds
Substance: Transmembrane protein 97 (TMEM97), endogenous in HEK293T (from UniProt Q5BJF2 1-176)
